According to doi:10.1101/2025.08.16.670655:
These are yes or no findings as the source states them, for the method shown. Binding seen in cells or lysates may run through a third protein. Here binding means that the protein was enriched with, or labelled near, the bait; the list need not be complete.

Chains of the proteins cited; added tags and fusions are not shown.
UniProt P20649: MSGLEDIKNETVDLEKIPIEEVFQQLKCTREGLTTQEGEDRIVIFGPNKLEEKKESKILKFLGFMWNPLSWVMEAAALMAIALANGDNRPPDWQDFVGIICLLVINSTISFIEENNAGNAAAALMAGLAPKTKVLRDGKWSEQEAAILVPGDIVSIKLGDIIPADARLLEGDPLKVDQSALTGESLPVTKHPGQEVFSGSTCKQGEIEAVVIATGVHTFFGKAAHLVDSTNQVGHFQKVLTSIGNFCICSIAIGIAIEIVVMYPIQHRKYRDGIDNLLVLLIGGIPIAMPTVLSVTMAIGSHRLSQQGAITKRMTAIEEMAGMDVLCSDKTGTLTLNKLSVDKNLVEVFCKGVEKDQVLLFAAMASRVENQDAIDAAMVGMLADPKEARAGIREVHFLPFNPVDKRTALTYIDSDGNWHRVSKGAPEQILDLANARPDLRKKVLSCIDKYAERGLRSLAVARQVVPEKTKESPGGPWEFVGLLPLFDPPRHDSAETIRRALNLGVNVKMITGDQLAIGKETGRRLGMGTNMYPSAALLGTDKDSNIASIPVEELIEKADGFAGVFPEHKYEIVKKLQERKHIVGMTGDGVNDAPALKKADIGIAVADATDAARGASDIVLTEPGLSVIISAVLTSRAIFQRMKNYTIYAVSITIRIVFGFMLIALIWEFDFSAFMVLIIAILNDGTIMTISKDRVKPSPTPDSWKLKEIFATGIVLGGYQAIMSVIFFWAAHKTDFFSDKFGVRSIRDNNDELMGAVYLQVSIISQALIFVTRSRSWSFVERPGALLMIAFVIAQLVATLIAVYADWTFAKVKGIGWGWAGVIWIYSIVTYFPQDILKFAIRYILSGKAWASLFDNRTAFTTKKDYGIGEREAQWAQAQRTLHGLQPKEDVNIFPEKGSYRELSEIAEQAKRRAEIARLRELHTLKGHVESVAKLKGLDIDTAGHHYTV
UniProt Q96299: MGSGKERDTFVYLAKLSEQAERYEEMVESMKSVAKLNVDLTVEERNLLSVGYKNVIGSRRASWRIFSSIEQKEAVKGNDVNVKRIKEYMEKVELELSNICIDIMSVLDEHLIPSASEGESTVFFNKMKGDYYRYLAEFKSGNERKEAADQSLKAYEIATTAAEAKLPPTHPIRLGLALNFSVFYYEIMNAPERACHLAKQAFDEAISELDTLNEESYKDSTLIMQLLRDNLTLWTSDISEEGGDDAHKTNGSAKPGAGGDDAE

Target: AHA1-GFP (Arabidopsis thaliana) (UniProt P20649)
Assay: affinity purification with mass spectrometry

binding | Molecule
binds | endogenous GRF9 (from UniProt Q96299 1-263)
binds | endogenous GRF2 (protein, UniProt Q01525 1-259) MASGREEFVYMAKLAEQAERYEEMVEFMEKVSAAVDGDELTVEERNLLSVAYKNVIGARRASWRIISSIEQKEESRGNDDHVTAIREYRSKIETELSGICDGILKLLDSRLIPAAASGDSKVFYLKMKGDYHRYLAEFKTGQERKDAAEHTLAAYKSAQDIANAELAPTHPIRLGLALNFSVFYYEILNSPDRACNLAKQAFDEAIAELDTLGEESYKDSTLIMQLLRDNLTLWTSDMQDDAADEIKEAAAPKPTEEQQ
binds | endogenous GRF10 (protein, UniProt P48347 1-254) MENEREKQVYLAKLSEQTERYDEMVEAMKKVAQLDVELTVEERNLVSVGYKNVIGARRASWRILSSIEQKEESKGNDENVKRLKNYRKRVEDELAKVCNDILSVIDKHLIPSSNAVESTVFFYKMKGDYYRYLAEFSSGAERKEAADQSLEAYKAAVAAAENGLAPTHPVRLGLALNFSVFYYEILNSPESACQLAKQAFDDAIAELDSLNEESYKDSTLIMQLLRDNLTLWTSDLNEEGDERTKGADEPQDEN
